The data set concerns BaF3/EGFR+ErbB4 cells. In words: ErbB4-dependent (NRG1β-induced, IL3-independent) proliferation of BaF3/EGFR+ErbB4 cells, semi-automated MTT assay. In kind it is cell-based, Mouse. The note with it: category from IC50 against NRG1β and selectivity IC50,IL3:IC50,NRG1β. The method, then:
This proliferation is dependent upon exogenous ErbB4 expression.
As noted earlier, the BaF3/EGFR+ErbB4 cells are IL3 dependent and this dependency can be rescued by stimulation of ErbB4 coupling to cell proliferation. Therefore, the specificity of each of the 19 candidate ErbB4 inhibitors was tested by assaying inhibition of ErbB4-dependent and IL3-dependent cellular proliferation in parallel.
As for `CCC(=O)NC(N(Cc1ccccc1)Cc1ccccc1)C(Cl)(Cl)Cl` (stereo not drawn) [SR-33483], the Priority entry was “Medium (IC50 of less than 30 μM against NRG1β-induced ErbB4-dependent cell proliferation AND a selectivity for ErbB4 over IL3 of at least 3)”.
The result for `O=C(Nc1cccc(O)c1)c1cc2nc(-c3ccccc3)cc(-c3ccccc3)n2n1` [SR-33487] reads “High (IC50 against NRG1β-induced ErbB4-dependent cell proliferation of less than 10 μM and a selectivity for ErbB4 over IL3 (the IC50 value against IL3 divided by the IC50 value against NRG1β—IC50,IL3:IC50,NRG1β) of greater than 10)”; that for `O=C1NC2=Nc3ccccc3SC(c3ccccc3)=C2C(c2ccc(O)cc2)N1` (stereo not drawn) [SR-33494], “Medium (IC50 of less than 30 μM against NRG1β-induced ErbB4-dependent cell proliferation AND a selectivity for ErbB4 over IL3 of at least 3)”.
Regarding `CCOC(=O)C1=C(N)OC2=C(C(=O)CC(C)(C)C2)C1C1CCCCC1` (stereo not drawn) [SR-33491], the Priority entry is reported as “Medium (IC50 of less than 30 μM against NRG1β-induced ErbB4-dependent cell proliferation AND a selectivity for ErbB4 over IL3 of at least 3)”.
For `CCCOc1ccc(C(=O)C(CCCCC(CN(C)C)C(=O)c2ccc(OCCC)cc2)CN(C)C)cc1` (stereo not drawn) [SR-33486] the value was “Medium (IC50 of less than 30 μM against NRG1β-induced ErbB4-dependent cell proliferation AND a selectivity for ErbB4 over IL3 of at least 3)”.
The result for `O=C(CC1c2ccccc2Oc2ccccc21)NCCOc1ccccc1` [SR-33492] reads “Medium (IC50 of less than 30 μM against NRG1β-induced ErbB4-dependent cell proliferation AND a selectivity for ErbB4 over IL3 of at least 3)”.

For the origin of these results see PMC7773179, “Development and application of high-throughput screens for the discovery of compounds that disrupt ErbB4 signaling: Candidate cancer therapeutics” (PLoS ONE, 2020).
